Measurements: PubChem BioAssay (EPA / NIEHS)
“And” between values parts separate entries of the source, which are not always exact repeats. Identical values can stand only once. Inconclusive means that the source gave no clear call. Such entries were picked first, then a sample of the others. A potency beside an inconclusive call is a rough fit, not a confirmed value. More than one record can exist for a structure, and the calls need not agree. The source made the active and inactive calls. The calls were made as follows: active = hit-call score of the fitted dose curve at least 0.9, where 1 is the maximum; inconclusive = response in the unintended direction; inactive = score below 0.9.

Assay: ACEA_ER_AUC_viability: ACEA Biosciences xCELLigence Real-Time Cell Analysis on Estrogen Receptor Agonism for Viability (AID 2283782)
Summary of the method: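 Read-out: real-time electrical impedance (RT-CES) area under curve, loss of signal taken as reduced viability, normalized to DMSO baseline. T-47D cells, charcoal-stripped serum medium, compounds up to 100 uM final, continuous exposure, 80 h.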

SMILES	outcome	AC50
CC(C)=CCCC(C)CCO (stereo not drawn)	inactive	
CC[C@H](c1ccc(O)cc1)[C@@H](CC)c1ccc(O)cc1		inconclusive: 0.00527 µM
O=C(O)c1ccccc1C(c1ccc(O)cc1)c1ccc(O)cc1		inconclusive: 50 µM and inconclusive: 9.92 µM
CCCCCc1ccc(N)cc1	inactive	active: 50 µM
O=c1c(-c2ccc(O)cc2)coc2cc(O)ccc12		inconclusive: 342 nM and inconclusive: 324 nM and inconclusive: 1.2 µM
CCOC(=O)COc1cc(-n2ncc(C(F)(F)F)c(C)c2=O)c(F)cc1Cl	inactive	
CC(C)=CCC[C@H](C)CCO	inactive	
COc1cc(O)c(C(=O)c2ccccc2)cc1S(=O)(=O)O		inconclusive: 0.0151 µM
O=C(O)Cc1ccccc1Nc1c(Cl)cccc1Cl		inconclusive: 50 µM
O=Cc1ccccc1C=O	inactive	
COc1ccc(C(=O)c2ccccc2)c(O)c1		inconclusive: 0.0989 µM
CC(=O)CC(C)(C)O		inconclusive: 50 µM
O=C(c1ccc(O)cc1O)c1ccc(O)cc1O		inconclusive: 345 nM and inconclusive: 507 nM and inconclusive: 433 nM
CN(C)C(=O)Nc1ccc(Cl)c(Cl)c1	inactive	
N#C[C@@H]1CC(F)(F)CN1C(=O)CNC1CC2CCC(C1)N2c1ncccn1 (stereo partly drawn)		inconclusive: 1.96 µM
CCCOC(=O)c1ccc(C(=O)OCCC)nc1	inactive	
O=c1cc(-c2ccccc2)oc2ccccc12		inconclusive: 10.1 µM
